In US20110040072A1, “MONO AND DI-SUBSTITUTED OXYCODONE COMPOUNDS AND COMPOSITIONS” (SHIRE LLC, priority 2006, published 2011):
At least one peptide structure holds a part that was inferred or is arguable (an end, a ring closure or a residue). The name of at least one read-out is uncertain.

Experiment: Oral bioavailability / oral pharmacokinetics of oxycodone conjugates in rats
Conditions: text says dose administered is 1 mg/kg (heading and table: […])

With `COc1ccc2c3c1O[C@H]1C(OC(=O)[C@H](CC(C)C)NC(=O)[C@@H]4CCCN4C(=O)[C@@H]4CCCN4)=CC[C@@]4(OC(=O)[C@H](CC(C)C)NC(=O)[C@@H]5CCCN5C(=O)[C@@H]5CCCN5)[C@@H](C2)N(C)CC[C@]314` [[PPL]2-OC, [Pro-Pro-Leu]2-OC] the “oral bioavailability compared to an equimolar oxycodone dose” value was “maintained”.
